These are yes or no findings as the source states them, for the method shown. In cells and extracts the contact can be indirect. Some entries that bind do so weakly or less than the wild type.
Molecular target: GST-hERα(DEF) (pGEX2T-hERα(DEF), amino acids 282-595) (human) (UniProt P03372)
Test: GST pull-down from HeLa whole cell extract with E2, Western blot

Protein sequences, listed by entry. Tags and fused reporters are not part of them. Residues count along the entry.
UniProt P03372, residues 282-595: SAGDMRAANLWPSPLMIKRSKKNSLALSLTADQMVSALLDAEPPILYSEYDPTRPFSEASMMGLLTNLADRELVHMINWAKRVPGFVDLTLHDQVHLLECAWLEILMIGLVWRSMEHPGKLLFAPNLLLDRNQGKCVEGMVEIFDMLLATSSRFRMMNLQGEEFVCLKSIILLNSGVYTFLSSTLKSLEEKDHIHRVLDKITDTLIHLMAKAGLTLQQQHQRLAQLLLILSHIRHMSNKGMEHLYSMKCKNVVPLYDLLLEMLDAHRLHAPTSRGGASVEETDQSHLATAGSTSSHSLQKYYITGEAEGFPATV

B1: TIF1 (protein, UniProt O15164 1-1050, looked up)
chain: MEVAVEKAVAAAAAASAAASGGPSAAPSGENEAESRQGPDSERGGEAARLNLLDTCAVCHQNIQSRAPKLLPCLHSFCQRCLPAPQRYLMLPAPMLGSAETPPPVPAPGSPVSGSSPFATQVGVIRCPVCSQECAERHIIDNFFVKDTTEVPSSTVEKSNQVCTSCEDNAEANGFCVECVEWLCKTCIRAHQRVKFTKDHTVRQKEEVSPEAVGVTSQRPVFCPFHKKEQLKLYCETCDKLTCRDCQLLEHKEHRYQFIEEAFQNQKVIIDTLITKLMEKTKYIKFTGNQIQNRIIEVNQNQKQVEQDIKVAIFTLMVEINKKGKALLHQLESLAKDHRMKLMQQQQEVAGLSKQLEHVMHFSKWAVSSGSSTALLYSKRLITYRLRHLLRARCDASPVTNNTIQFHCDPSFWAQNIINLGSLVIEDKESQPQMPKQNPVVEQNSQPPSGLSSNQLSKFPTQISLAQLRLQHMQQQVMAQRQQVQRRPAPVGLPNPRMQGPIQQPSISHQQPPPRLINFQNHSPKPNGPVLPPHPQQLRYPPNQNIPRQAIKPNPLQMAFLAQQAIKQWQISSGQGTPSTTNSTSSTPSSPTITSAAGYDGKAFGSPMIDLSSPVGGSYNLPSLPDIDCSSTIMLDNIVRKDTNIDHGQPRPPSNRTVQSPNSSVPSPGLAGPVTMTSVHPPIRSPSASSVGSRGSSGSSSKPAGADSTHKVPVVMLEPIRIKQENSGPPENYDFPVVIVKQESDEESRPQNANYPRSILTSLLLNSSQSSTSEETVLRSDAPDSTGDQPGLHQDNSSNGKSEWLDPSQKSPLHVGETRKEDDPNEDWCAVCQNGGELLCCEKCPKVFHLSCHVPTLTNFPSGEWICTFCRDLSKPEVEYDCDAPSHNSEKKKTEGLVKLTPIDKRKCERLLLFLYCHEMSLAFQDPVPLTVPDYYKIIKNPMDLSTIKKRLQEDYSMYSKPEDFVADFRLIFQNCAEFNEPDSEVANAGIKLENYFEELLKNLYPEKRFPKPEFRNESEDNKFSDDSDDDFVQPRKKRLKSIEERQLLK
**Q.** For B1, which binding is on record?
**A.** binds
